## Results from one PubChem assay

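A cell-based FRET test of anthrax lethal toxin entry, tracked through the 460 nm emission signal; the cell line is not named here. Each compound was tested as a concentration series from about 0.0005 to 40 µM. The number is the fitted AC50 of the 460 nm signal alone; lower values mean a more potent effect. A falling signal goes with compounds filed as inhibitors or cytotoxic, a rising one with activators or fluorescent compounds (inferred from the filed classes).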

Values are in µM. Common to all entries: measured here: 460 nm channel. Part of the compounds only, not a random draw; the main read-out is not listed here. A potency from a partial, single-point or poor curve is only a rough figure. The first word of each remark tells which way the curve ran; it can be opposite to the aim of the assay.

compound | AC50 (µM) | curve as filed
Cc1nc(C)c(C(=O)Nc2ccc(Oc3ccccc3)cc2)o1 | 3.162 | falling, single point
COc1ccc(C(=O)N2CCN(c3nc4cc(C)ccc4cc3C#N)CC2)c(OC)c1 | 10 | falling, partial curve
COc1ccc2[nH]cc(CCNc3ncnc4ccc(-c5ccccc5C#N)cc34)c2c1 | 31.62 | falling, single point
COc1cccc2c1C(=O)c1c(O)c3c(c(O)c1C2=O)C[C@@](O)(C(C)=O)C[C@@H]3O[C@H]1C[C@H](N)[C@H](O)[C@H](C)O1 | 12.59 | falling, partial curve
CC(=O)c1cc2cc(O)ccc2o1 | 10 | rising, single point
O=C(Nc1ccc(N2CCOCC2)cc1)Nc1ccc2nc(-c3ccco3)c(-c3ccco3)nc2c1 | 3.162 | falling, partial curve
COc1ccc(OC)c(-n2c(SCC(=O)N3CCc4ccccc43)nc3c(c2=O)SCC3)c1 | 10 | falling, partial curve
COc1ccc(OC)c(C2CC(=O)c3c([nH]c(C(=O)OCC4CCCO4)c3C)C2)c1 (stereo not drawn) | 25.12 | falling, single point
CC(C)(C)C(=O)OCCn1c(=O)c2cc3c(=O)n(CCOC(=O)C(C)(C)C)c(=O)c3cc2c1=O | 0.631 | falling, single point
COc1cc(C=O)c([N+](=O)[O-])cc1OC | 31.62 | falling, single point
COC(=O)c1ccccc1NC(=O)N1c2ccccc2CC1C (stereo not drawn) | 5.012 | falling, partial curve
Cc1ccc(C)c(S(=O)(=O)N2CCN(CC(=O)NC(=O)NCc3ccccc3)CC2)c1 | 10 | rising, single point
Cc1ccc(CC(=O)N2CCC(c3nc4c(nnn4Cc4ccccc4)c(=O)[nH]3)CC2)cc1 | 2.512 | rising, partial curve
CC1CCc2c(C(=O)N3CCN(S(=O)(=O)c4cccs4)CC3)csc2C1 (stereo not drawn) | 0.01 | falling, full curve
NC(=O)c1oc2ccccc2c1NC(=O)CN1CCCCC1 | 0.1259 | falling, full curve
COC(=O)[C@@]1(Cc2ccccc2)[C@H]2c3cc(C(=O)N4CCCC4)n(Cc4ccc(O)c(OC)c4)c3C[C@H]2CN1C(=O)c1ccccc1 | 10 | rising, partial curve
CCCCN1C(=O)/C(=C2\SC(N3CCCCC3)=NC2=O)c2ccccc21 | 31.62 | falling, single point
COCCn1c(=O)c(-c2ccc(OC)cc2)nc2cnc(N3CCOCC3)nc21 | 6.31 | rising, full curve, poor fit
COc1cccc(Nc2ncc3nc(CCc4ccccc4)c(=O)n(C)c3n2)c1 | 15.85 | rising, partial curve
COC(=O)c1oc2ccc(Br)cc2c1NC(=O)CCCN1C(=O)c2ccccc2C1=O | 6.31 | falling, partial curve
COc1cccc2cc(C(=O)C3=C(O)C(=O)N(CCN4CCOCC4)C3c3cccs3)oc12 (stereo not drawn) | 10 | rising, partial curve
Oc1ccccc1CNCCCNCc1ccccc1O | 31.62 | falling, single point
Cc1c2oc3c(C)ccc(C(=O)N[C@@H]4C(=O)N[C@@H](C(C)C)C(=O)N5CCC[C@@H]5C(=O)N(C)CC(=O)N(C)[C@@H](C(C)C)C(=O)O[C@H]4C)c3nc-2c(C(=O)N[C@@H]2C(=O)N[C@@H](C(C)C)C(=O)N3CCC[C@@H]3C(=O)N(C)CC(=O)N(C)[C@@H](C(C)C)C(=O)O[C@H]2C)c(N)c1=O | 12.59 | falling, single point
N#C/C(=C\c1ccco1)Sc1nc2ccccc2s1 | 25.12 | falling, single point
Cc1onc(-c2ccccc2Cl)c1C(=O)N1CCN(c2cccc(Cl)c2)CC1 | 1 | falling, full curve
CCCS(=O)(=O)c1c(S(=O)(=O)CCC)c2c(N)cccn2c1C(=O)c1ccc(F)cc1 | 3.981 | falling, partial curve
Cn1c(SCC2CCCCC2)nnc1-c1ccncc1 | 5.012 | rising, partial curve, poor fit
O=C1COC(c2ccccc2O)=NN1CCCN1CCCC1 | 0.0007943 | falling, full curve, poor fit
COc1ccc(-c2nn3c(-c4ccncc4)nnc3s2)cc1OC | 0.1585 | falling, full curve, poor fit
Cn1cccc1Cc1nnc(SCC(=O)Nc2cccc(Cl)c2)n1-c1ccc(F)cc1 | 12.59 | falling, partial curve
COC(=O)[C@@]1(Cc2ccc(F)cc2)[C@H]2c3cc(C(=O)N4CCCC4)n(CCF)c3C[C@H]2CN1C(=O)c1ccccc1 | 3.162 | rising, partial curve, poor fit
O=C(O)CNC(=O)[C@@H](CS)Cc1ccccc1 | 0.1585 | rising, full curve, poor fit
CC(C)(C)c1ccccc1OCCCCCNCCO | 19.95 | falling, single point
C/C(O)=C(/C#N)c1nc2ccccc2[nH]1 | 1.259 | rising, partial curve
O=c1[nH]ncc2ccccc12 | 31.62 | falling, single point
Cc1ccccc1OCc1nc(-c2ccc(NC(=O)c3ccco3)cc2)no1 | 1.995 | falling, partial curve
Cc1noc(C)c1CSc1nc2ccccc2n1CCc1ccccc1 | 12.59 | rising, single point
Cc1cccc(-n2ncc3c(NCc4ccccc4)ncnc32)c1 | 7.943 | falling, partial curve
CCC(C)(C)NC(=O)C(c1cccnc1)N(CCOC)C(=O)Cn1nnc2ccccc21 (stereo not drawn) | 0.05012 | falling, full curve, poor fit
CC(C)(c1cc(Br)c(O)c(Br)c1)c1cc(Br)c(O)c(Br)c1 | 15.85 | falling, partial curve
O=C1C[C@@H](c2ccc(O)cc2)Oc2cc(O)cc(O)c21 | 0.7943 | rising, partial curve
CC(C)(c1ccc(O)cc1)c1ccc(O)cc1 | 19.95 | falling, partial curve, poor fit
Cc1ccc(-n2c(SCc3ccc(C#N)cc3)nnc2-c2ccccn2)cc1 | 25.12 | rising, single point
COc1ccc(OC)c(C(=O)COC(=O)c2ccccc2O)c1 | 5.012 | falling, single point
N=c1n(CCN2CCCCC2)c2ccccc2n1CC(O)COc1ccccc1 (stereo not drawn) | 10 | falling, partial curve, poor fit
Cc1ccc(NC(=O)c2oc3c(c2C)C(=O)CC(C)(C)C3)cc1 | 12.59 | falling, single point
CCc1ccc2[nH]c(=O)c(C(c3nnnn3CCOC)N3CCN(c4ccccc4)CC3)cc2c1 (stereo not drawn) | 12.59 | falling, partial curve
CCS(=O)(=O)N1CCC(C(=O)NCc2ccc(F)cc2)CC1 | 31.62 | falling, single point
CCNC(=O)CC(=O)Nc1ccccc1C(=O)O | 12.59 | rising, partial curve
O=C(O)c1cc(O)c(O)c(O)c1 | 25.12 | falling, partial curve, poor fit
c1coc(Cn2nnnc2CN2CCN(C3CCCC3)CC2)c1 | 5.012 | falling, single point
CCCCn1c(SCC(=O)N2CCCCC2)nc2cc(S(N)(=O)=O)ccc21 | 10 | rising, partial curve
COc1ccc(-n2c(Cc3cccn3C)nnc2SCC(=O)Nc2cc(Cl)ccc2OC)cc1 | 12.59 | falling, partial curve
CCN1CCCC1CNC1=NCCCCC1 (stereo not drawn) | 25.12 | rising, single point
Cc1cc(O)cc(O)c1-c1onc(C(F)(F)F)c1-c1cscn1 | 12.59 | falling, partial curve
O=C(Nc1ccc(Cl)cc1)c1cc2nc(-c3ccco3)cc(C(F)(F)F)n2n1 | 0.631 | rising, full curve, poor fit

The last 6 entries again:

compound	AC50 (µM)	curve as filed
c1coc(Cn2nnnc2CN2CCN(C3CCCC3)CC2)c1	5.012	falling, single point
CCCCn1c(SCC(=O)N2CCCCC2)nc2cc(S(N)(=O)=O)ccc21	10	rising, partial curve
COc1ccc(-n2c(Cc3cccn3C)nnc2SCC(=O)Nc2cc(Cl)ccc2OC)cc1	12.59	falling, partial curve
CCN1CCCC1CNC1=NCCCCC1 (stereo not drawn)	25.12	rising, single point
Cc1cc(O)cc(O)c1-c1onc(C(F)(F)F)c1-c1cscn1	12.59	falling, partial curve
O=C(Nc1ccc(Cl)cc1)c1cc2nc(-c3ccco3)cc(C(F)(F)F)n2n1	0.631	rising, full curve, poor fit

From PubChem BioAssay record AID912 (NCATS, 2007).